These results are taken from publication PMC10908107.

Protein sequences, listed by entry. Tags and fused reporters are not part of them.
UniProt P98175: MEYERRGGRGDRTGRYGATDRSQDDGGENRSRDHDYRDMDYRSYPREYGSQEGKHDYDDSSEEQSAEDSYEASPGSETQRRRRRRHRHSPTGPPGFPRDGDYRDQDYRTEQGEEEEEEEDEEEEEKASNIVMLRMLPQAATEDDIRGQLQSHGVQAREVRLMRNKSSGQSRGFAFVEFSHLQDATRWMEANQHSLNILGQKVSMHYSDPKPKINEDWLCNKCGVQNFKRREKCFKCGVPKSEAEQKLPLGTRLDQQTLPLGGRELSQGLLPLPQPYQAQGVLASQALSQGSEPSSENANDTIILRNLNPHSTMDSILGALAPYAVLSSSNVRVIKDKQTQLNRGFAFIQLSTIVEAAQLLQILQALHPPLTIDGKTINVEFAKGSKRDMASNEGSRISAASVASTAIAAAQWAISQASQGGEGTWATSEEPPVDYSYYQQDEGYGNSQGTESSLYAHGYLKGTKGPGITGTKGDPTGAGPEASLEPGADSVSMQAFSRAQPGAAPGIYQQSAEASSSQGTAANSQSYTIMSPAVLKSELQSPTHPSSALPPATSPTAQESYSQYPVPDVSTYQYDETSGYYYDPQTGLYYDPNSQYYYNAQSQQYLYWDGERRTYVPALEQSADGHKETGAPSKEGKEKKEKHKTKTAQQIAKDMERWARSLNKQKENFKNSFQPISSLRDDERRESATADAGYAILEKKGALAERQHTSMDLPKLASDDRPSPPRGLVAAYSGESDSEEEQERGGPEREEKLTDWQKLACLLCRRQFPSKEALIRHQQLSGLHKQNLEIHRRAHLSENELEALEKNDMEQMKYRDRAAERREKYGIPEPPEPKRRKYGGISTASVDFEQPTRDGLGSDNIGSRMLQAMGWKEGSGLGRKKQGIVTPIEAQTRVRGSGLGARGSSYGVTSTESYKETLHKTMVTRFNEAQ

Results are given in words; binding and its absence hold for the method and conditions named. In cells and extracts the contact can be indirect. These calls come from enrichment with a bait or labelling near it, and not all partners need be listed.

The experiment deals with T1, PIN2/TERF1-interacting telomerase inhibitor (PinX1) (human (endogenous in A549)) (UniProt Q96BK5).
T1 sequence: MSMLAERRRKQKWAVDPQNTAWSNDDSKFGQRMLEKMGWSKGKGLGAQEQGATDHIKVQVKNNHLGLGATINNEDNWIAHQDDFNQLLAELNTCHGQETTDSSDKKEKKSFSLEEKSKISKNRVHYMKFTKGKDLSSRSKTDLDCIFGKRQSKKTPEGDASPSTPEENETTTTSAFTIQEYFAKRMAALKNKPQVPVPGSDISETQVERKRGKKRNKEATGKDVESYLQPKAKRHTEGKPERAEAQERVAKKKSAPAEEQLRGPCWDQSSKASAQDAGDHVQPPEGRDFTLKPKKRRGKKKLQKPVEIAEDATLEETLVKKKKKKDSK
The experiment in a line: affinity purification with mass spectrometry; A549 cells lysed in IP lysis buffer; immunoprecipitation with anti-PinX1 antibody or IgG at 4 °C overnight, Protein A/G magnetic beads, SDS-PAGE, mass spectrometry.

For “RNA-binding motif protein 10 (RBM10) (from UniProt P98175 1-930)”, the binding entry is listed as “binds”.
